Test results reported in the supplement of paper PMC10849652.
Some of the results follow.

Amino acid sequences for entries named in this document (tags omitted). A change or cut given only in a name is not applied to a line headed by its entry.
UniProt Q9BPX5, whole entry, looked up: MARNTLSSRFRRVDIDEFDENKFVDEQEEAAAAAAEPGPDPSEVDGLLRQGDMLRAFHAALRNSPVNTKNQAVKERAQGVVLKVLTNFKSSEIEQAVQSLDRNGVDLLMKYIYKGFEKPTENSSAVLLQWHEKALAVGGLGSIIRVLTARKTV
UniProt P56378: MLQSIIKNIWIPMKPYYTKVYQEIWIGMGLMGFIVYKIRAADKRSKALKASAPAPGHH
UniProt Q6ZNE5, whole entry, looked up: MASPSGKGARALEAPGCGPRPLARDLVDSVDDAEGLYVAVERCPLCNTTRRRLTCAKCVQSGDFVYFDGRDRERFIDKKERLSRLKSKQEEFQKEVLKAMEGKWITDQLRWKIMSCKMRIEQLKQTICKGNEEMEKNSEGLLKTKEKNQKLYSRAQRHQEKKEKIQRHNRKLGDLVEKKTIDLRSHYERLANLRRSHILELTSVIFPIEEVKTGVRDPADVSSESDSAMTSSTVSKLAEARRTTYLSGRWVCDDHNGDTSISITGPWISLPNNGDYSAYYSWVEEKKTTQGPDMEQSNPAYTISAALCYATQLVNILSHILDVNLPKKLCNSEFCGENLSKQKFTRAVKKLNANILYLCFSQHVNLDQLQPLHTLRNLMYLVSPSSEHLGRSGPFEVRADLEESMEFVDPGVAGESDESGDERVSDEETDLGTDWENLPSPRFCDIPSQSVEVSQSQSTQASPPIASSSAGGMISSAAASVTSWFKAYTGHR
UniProt P40617: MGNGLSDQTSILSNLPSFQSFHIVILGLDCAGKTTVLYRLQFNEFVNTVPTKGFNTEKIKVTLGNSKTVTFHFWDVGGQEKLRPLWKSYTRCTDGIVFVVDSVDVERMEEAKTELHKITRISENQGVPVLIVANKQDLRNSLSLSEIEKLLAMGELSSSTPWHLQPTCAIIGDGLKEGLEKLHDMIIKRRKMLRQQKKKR
UniProt Q8NBU5: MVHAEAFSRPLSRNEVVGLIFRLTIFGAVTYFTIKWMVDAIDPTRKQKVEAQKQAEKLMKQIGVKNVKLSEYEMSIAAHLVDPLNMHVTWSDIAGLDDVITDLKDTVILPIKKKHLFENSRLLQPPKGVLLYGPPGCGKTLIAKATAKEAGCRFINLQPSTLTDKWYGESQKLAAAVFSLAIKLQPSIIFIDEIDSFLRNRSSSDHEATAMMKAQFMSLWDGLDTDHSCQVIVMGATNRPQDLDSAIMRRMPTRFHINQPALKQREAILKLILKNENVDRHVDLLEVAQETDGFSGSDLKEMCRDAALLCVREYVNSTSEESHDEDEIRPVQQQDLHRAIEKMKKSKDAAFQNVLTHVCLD
UniProt Q96BM9: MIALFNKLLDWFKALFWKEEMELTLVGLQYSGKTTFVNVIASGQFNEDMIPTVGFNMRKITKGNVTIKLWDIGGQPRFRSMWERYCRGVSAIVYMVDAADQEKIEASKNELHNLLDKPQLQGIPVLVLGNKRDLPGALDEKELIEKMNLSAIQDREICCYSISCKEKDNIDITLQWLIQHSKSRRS
UniProt Q9Y2Y0: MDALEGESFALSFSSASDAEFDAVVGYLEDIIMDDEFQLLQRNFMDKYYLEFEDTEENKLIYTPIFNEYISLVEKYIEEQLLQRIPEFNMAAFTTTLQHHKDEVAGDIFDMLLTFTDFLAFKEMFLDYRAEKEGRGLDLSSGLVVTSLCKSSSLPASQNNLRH
UniProt P98194: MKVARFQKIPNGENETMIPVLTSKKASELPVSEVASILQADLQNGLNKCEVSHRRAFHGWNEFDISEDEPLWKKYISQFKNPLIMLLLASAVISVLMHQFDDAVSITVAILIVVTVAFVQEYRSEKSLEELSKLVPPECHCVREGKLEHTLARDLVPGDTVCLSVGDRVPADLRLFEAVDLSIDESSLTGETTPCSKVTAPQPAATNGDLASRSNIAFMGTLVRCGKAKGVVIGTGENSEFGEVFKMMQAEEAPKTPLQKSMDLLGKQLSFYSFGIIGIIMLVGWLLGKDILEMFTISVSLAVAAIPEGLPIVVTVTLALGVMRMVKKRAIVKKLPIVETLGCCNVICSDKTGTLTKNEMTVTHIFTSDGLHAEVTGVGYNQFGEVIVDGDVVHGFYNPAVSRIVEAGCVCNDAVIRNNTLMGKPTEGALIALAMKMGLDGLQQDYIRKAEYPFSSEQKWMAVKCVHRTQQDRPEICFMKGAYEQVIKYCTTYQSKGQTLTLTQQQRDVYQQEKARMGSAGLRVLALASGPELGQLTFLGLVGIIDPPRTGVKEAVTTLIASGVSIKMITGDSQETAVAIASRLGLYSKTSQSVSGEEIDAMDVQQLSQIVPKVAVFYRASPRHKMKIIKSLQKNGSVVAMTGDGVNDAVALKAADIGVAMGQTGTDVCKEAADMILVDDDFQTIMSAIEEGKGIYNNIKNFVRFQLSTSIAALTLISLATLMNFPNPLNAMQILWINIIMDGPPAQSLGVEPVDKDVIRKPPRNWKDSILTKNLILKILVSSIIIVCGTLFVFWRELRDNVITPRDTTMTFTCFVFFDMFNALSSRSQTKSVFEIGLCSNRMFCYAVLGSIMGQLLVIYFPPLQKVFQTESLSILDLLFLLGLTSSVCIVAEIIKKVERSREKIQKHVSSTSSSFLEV
UniProt Q9ULH1: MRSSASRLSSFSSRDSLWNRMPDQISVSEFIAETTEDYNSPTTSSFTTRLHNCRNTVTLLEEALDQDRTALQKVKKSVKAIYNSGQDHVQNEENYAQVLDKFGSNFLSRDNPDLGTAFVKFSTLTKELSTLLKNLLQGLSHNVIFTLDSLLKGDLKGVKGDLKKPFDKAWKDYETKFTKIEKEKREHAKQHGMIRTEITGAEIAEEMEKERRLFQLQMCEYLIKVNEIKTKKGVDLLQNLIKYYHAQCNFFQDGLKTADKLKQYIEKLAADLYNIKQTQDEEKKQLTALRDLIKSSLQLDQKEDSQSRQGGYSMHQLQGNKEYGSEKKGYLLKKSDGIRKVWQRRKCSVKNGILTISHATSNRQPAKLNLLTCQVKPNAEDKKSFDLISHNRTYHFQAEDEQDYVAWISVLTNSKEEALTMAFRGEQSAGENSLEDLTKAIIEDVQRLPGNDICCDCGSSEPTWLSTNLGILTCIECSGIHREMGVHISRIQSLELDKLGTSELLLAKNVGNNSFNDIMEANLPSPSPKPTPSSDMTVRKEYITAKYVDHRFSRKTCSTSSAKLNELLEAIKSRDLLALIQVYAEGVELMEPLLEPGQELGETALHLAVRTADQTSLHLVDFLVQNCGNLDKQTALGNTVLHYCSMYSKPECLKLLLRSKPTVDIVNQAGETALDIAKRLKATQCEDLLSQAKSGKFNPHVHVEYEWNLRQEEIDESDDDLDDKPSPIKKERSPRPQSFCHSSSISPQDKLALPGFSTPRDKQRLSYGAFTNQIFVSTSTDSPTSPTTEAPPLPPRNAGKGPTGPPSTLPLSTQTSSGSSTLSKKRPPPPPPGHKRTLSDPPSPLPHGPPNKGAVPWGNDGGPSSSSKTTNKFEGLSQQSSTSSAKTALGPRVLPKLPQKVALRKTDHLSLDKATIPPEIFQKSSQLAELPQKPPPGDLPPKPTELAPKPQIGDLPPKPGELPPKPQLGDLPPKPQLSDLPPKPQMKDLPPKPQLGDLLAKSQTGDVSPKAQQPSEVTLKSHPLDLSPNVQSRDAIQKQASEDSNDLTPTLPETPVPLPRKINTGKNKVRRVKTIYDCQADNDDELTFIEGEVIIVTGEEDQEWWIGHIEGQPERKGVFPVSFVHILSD
UniProt P31939: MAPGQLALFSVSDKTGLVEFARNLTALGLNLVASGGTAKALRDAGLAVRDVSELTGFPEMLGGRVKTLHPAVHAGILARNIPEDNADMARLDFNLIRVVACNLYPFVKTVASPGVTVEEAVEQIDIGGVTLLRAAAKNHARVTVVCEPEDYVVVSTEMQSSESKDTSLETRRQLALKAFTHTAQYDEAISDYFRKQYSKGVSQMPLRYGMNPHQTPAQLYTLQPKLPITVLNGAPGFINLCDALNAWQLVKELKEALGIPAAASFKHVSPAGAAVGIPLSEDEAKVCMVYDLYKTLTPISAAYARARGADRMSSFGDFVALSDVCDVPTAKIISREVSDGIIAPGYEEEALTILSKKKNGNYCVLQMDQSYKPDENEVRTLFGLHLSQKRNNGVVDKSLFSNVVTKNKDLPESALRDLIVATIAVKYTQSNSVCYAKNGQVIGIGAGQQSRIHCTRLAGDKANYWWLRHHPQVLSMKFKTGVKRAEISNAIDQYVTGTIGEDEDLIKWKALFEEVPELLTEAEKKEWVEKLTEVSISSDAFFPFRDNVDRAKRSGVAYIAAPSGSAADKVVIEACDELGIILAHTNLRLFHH
UniProt Q9NVJ2: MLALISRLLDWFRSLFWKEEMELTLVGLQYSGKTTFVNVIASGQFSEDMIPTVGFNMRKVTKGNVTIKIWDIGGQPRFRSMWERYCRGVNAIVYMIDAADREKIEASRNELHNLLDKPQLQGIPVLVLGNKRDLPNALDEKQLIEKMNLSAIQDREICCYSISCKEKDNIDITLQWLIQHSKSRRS
UniProt P40616: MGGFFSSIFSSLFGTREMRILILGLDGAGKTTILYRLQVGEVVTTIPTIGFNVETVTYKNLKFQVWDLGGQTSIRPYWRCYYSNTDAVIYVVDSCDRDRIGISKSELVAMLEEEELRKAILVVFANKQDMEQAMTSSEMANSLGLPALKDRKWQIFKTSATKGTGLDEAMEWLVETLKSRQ
UniProt Q2TAZ0: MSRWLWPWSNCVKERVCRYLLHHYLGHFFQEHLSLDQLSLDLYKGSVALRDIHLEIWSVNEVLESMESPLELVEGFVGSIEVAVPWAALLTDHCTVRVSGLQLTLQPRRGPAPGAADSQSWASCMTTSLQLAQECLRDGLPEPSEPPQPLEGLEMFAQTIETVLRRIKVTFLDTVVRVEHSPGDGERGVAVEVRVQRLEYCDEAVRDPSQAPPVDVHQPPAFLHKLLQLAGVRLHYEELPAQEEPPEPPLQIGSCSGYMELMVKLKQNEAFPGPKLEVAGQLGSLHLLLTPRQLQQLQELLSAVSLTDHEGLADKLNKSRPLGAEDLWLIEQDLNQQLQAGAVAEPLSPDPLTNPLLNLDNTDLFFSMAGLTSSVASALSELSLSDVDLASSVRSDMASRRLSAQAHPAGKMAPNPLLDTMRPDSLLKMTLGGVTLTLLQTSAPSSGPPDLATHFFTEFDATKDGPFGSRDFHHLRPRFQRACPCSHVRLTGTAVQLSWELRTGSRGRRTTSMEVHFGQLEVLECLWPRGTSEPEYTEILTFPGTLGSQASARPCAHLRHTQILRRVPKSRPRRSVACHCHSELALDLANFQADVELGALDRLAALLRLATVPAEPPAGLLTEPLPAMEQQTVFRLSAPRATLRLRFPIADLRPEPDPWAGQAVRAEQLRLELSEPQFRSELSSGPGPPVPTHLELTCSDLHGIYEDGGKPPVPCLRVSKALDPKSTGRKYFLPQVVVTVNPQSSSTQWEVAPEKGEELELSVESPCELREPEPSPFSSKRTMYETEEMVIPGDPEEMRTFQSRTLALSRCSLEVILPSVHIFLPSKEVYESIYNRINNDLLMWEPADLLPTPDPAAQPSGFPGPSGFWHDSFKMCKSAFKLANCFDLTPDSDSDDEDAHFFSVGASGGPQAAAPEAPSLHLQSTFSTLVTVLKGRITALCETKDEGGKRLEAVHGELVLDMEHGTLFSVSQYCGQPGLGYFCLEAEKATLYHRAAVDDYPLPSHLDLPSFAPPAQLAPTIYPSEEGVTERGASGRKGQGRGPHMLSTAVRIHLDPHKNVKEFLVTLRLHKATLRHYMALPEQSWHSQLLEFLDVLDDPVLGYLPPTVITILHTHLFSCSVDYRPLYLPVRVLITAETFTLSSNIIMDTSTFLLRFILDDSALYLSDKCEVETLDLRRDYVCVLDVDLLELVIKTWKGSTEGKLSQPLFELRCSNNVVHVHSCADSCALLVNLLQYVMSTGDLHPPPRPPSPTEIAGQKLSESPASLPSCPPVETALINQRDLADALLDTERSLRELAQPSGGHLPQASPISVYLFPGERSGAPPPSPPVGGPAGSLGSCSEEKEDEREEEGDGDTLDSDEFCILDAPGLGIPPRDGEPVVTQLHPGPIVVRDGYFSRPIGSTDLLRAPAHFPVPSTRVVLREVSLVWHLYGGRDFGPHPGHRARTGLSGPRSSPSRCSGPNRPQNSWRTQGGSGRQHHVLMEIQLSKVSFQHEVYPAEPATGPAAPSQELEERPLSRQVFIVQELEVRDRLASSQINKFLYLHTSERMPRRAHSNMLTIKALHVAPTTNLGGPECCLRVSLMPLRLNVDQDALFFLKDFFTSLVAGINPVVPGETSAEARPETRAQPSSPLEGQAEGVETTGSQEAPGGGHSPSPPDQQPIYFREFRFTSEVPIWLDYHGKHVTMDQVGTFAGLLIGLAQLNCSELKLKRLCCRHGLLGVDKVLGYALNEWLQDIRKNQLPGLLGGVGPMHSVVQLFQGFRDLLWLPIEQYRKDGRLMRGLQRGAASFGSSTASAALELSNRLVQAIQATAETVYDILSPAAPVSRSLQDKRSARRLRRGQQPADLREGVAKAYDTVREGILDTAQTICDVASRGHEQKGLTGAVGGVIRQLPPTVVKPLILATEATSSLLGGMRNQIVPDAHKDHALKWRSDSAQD

How the values were obtained:
Assay in all cases: log2 fold change, soluble protein after heating vs DMSO (PISA); higher = thermal stabilisation; K562 cells, 10 uM, 30 min; active = over 0.2 and 3.5 SD of the protein, either way, in both replicates (recomputed)
[1] = compound: C1=CC=C(C=C1)[C@H](COC2=CC3=C(C=C2)NC(=O)N3)NC(=O)C4=CC=CN(C4=O)CC5=CC(=C(C=C5)F)F
Procedure, shortened: (§1)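 K562 cells at 2×10^6 cells/mL were given 10 μM compound for 30 min. Aliquots then went through 3 min of heating across 48°C-58°C, were pooled, and were extracted in PBS with 0.5% NP-40 at 4°C, and the supernatant after 21,000xg for 90 min was quantified by TMTpro 16plex LC-MS/MS with channel sums equalised. Thermal stability relative to control samples, from duplicates, is given as log2 fold change.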

[2] = compound: CC1=C(SC2=C1C(=N[C@H](C3=NN=C(N32)C)CC(=O)N)C4=CC=C(C=C4)Cl)C
Procedure, shortened: as §1

[3] = compound: CC1=C2C(=CC=C1)N=C(N(C2=O)C3=CC=CC=C3C)CN4C=NC5=C(N=CN=C54)N
Procedure, shortened: as §1

[4] = compound: Cc1sc2c(c1C)C(c1ccc(Cl)cc1)=N[C@@H](CC(=O)OC(C)(C)C)c1nnc(C)n1-2
Procedure, shortened: as §1

[5] = compound: c1ccc([C@@H]2C[C@H]2NC2CCNCC2)cc1
Procedure, shortened: as §1

Measured: log2 fold change

ARMC8 (UniProt Q8IUR7)
inactive: [1] 0.05 | [2] -0.005 | [3] 0 | [4] 0.021 | [5] 0.011

ARMC10 (UniProt Q8N2F6)
inactive: [1] 0.035 | [2] -0.017 | [3] -0.006 | [4] 0.012 | [5] -0.009

ARPC5L (UniProt Q9BPX5)
inactive: [1] 0.017 | [2] 0.031 | [3] -0.037 | [4] 0.004 | [5] 0.022

ATP5MPL (UniProt P56378)
inactive: [1] 0.025 | [2] 0.088 | [3] 0.044 | [4] -0.078 | [5] 0.06

ATN1 (UniProt P54259)
inactive: [1] 0.009 | [2] -0.044 | [3] 0.03 | [4] 0.031 | [5] -0.055

ATG14 (UniProt Q6ZNE5)
inactive: [1] 0.175

ARL4A (UniProt P40617)
inactive: [1] -0.027

ASMTL (UniProt O95671)
inactive: [1] -0.29 | [2] -0.048 | [3] 0.198 | [4] 0.109 | [5] -0.016

ATG3 (UniProt Q9NT62)
inactive: [1] 0.002 | [2] 0.01 | [3] 0.074 | [4] 0.016 | [5] 0.005

ARMT1 (UniProt Q9H993)
inactive: [1] -0.209 | [2] -0.012 | [3] 0.118 | [4] 0.183 | [5] -0.021

ATAD1 (UniProt Q8NBU5)
inactive: [1] 0.016 | [2] 0.055 | [3] 0.063 | [4] -0.027 | [5] -0.02

ATP13A2 (UniProt Q9NQ11)
inactive: [1] 0.031 | [2] -0.075 | [3] 0.007 | [4] -0.062 | [5] 0.092

ARL8A (UniProt Q96BM9)
inactive: [1] 0.047 | [2] 0.035 | [3] 0.032 | [4] 0.011 | [5] -0.034

ARL2BP (UniProt Q9Y2Y0)
inactive: [1] -0.076 | [2] 0 | [3] 0.14 | [4] 0.069 | [5] 0.017

ATP5F1D (UniProt P30049)
inactive: [1] 0.006 | [2] 0.07 | [3] 0.015 | [4] -0.044 | [5] -0.015

ATP2C1 isoform 7 (UniProt P98194)
inactive: [1] -0.005 | [2] 0.047 | [3] 0.016 | [4] 0.027 | [5] 0.021

ASAP1 isoform 2 (UniProt Q9ULH1)
inactive: [1] -0.114 | [2] 0.025 | [3] 0.25 | [4] 0.102 | [5] 0.005

ATP2B4 (UniProt P23634)
inactive: [1] 0.041 | [2] 0.066 | [3] 0.043 | [4] -0.01 | [5] 0.052

ATIC (UniProt P31939)
inactive: [1] -0.023 | [2] 0.039 | [3] 0.073 | [4] -0.041 | [5] -0.012

ARL8B (UniProt Q9NVJ2)
inactive: [1] 0.017 | [2] 0 | [3] -0.02 | [4] 0.009 | [5] 0.041

ARL1 (UniProt P40616)
inactive: [1] -0.084 | [2] 0.057 | [3] 0.079 | [4] -0.1 | [5] -0.048

ATP5PB (UniProt P24539)
inactive: [1] 0.043 | [2] 0.02 | [3] 0.013 | [4] -0.049 | [5] 0.007

ASPSCR1 isoform 2 (UniProt Q9BZE9)
inactive: [1] -0.041 | [2] -0.019 | [3] 0.027 | [4] -0.027 | [5] 0.035

ATG2A isoform 3 (UniProt Q2TAZ0)
inactive: [1] -0.003 | [2] 0.063 | [3] 0.029 | [4] 0.013 | [5] -0.009

ATF3 (UniProt P18847)
inactive: [1] 0.004 | [2] 0.277 | [3] 0.021 | [4] 0.143 | [5] 0.097

ASRGL1 (UniProt Q7L266)
inactive: [1] 0.069 | [2] 0.037 | [3] -0.007 | [4] -0.032 | [5] -0.048

Looked up one by one from above, 2 records:
ATF3 (UniProt P18847)
inactive: [1] 0.004 | [2] 0.277 | [3] 0.021 | [4] 0.143 | [5] 0.097

ASPSCR1 isoform 2 (UniProt Q9BZE9)
inactive: [1] -0.041 | [2] -0.019 | [3] 0.027 | [4] -0.027 | [5] 0.035
